Test results as given in paper PMC4031160.
No constants are given. Whether binding was seen depends on the method and setting. Binding seen in cells or lysates may run through a third protein. Some binding calls cover weakened binding; strength is not graded here.

By UniProt entry, the sequences of proteins in these tests, tags left out.
UniProt P24860: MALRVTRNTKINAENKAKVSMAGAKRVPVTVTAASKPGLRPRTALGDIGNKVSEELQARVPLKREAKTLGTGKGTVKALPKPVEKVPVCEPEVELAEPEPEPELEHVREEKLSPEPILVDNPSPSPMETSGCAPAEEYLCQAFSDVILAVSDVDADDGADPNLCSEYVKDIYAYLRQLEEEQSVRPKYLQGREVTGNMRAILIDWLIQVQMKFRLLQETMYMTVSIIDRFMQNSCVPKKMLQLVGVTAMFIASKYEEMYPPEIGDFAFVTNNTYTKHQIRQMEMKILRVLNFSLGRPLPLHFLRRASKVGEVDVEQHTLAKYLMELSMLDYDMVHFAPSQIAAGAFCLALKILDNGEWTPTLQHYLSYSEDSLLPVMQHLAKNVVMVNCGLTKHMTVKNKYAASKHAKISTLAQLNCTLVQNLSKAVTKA
UniProt P11440: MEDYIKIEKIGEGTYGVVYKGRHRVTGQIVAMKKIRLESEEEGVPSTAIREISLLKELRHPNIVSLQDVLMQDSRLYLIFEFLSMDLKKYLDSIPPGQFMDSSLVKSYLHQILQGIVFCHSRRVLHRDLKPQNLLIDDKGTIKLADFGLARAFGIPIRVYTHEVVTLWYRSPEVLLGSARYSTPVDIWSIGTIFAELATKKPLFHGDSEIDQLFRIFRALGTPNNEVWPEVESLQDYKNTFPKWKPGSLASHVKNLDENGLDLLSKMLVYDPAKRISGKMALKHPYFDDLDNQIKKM

Molecular target: cyclin B1 (mouse (endogenous in embryonic liver)) (UniProt P24860)
Test: co-IP; endogenous proteins in total lysates (100-200 ug) of mouse embryonic liver tissue (E11.5 and E15.5) harvested 0 and 16 h after IR of the pregnant mice; 1-2 ul primary antibody, protein G sepharose, 3 to 4 washes, Western blot

Row | binding | Substance
1 | binds | Cdk1 (from UniProt P11440 1-297) (enzyme)
2 | binds | Cdk2 (from UniProt P97377 1-346) (enzyme)
